# Experimental data: PubChem BioAssay AID1224830 (NIAID, 2016)
# Assay: 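Genes whose knock-down alters the TNF-alpha reporter response to LPS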 (primary screen)
# Cell system: human THP-1 monocytic leukaemia cells, TNF dual-luciferase reporter clone, PMA-differentiated to macrophage-like cells
# Reagents: siRNA pool against human genes, 50 nM
# Duration: LPS for 4 h, given about 3 days after siRNA transfection
# Treatment: bacterial LPS (TLR4 ligand), 10 ng/ml
# Measurement: 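TNF firefly reporter luminescence divided by renilla, normalised to the plate median, then turned into a robust z-score for each replicate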
# Reading the numbers: TNF reporter robust z-score: higher = stronger TNF reporter response to LPS
# Active means: 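Each well counts as active if its z-score is over 2.8 or under -1.5; controls are left without a call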
# Here is an unselected part of about 18,000 deposited reagents. About 2,900 of all reagents (16%) were called active. 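Calls are made per well; low scores hint the gene aids the LPS response, high scores that it dampens it.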 Repeated entries: four replicate wells of each siRNA pool.
target,TNF reporter robust z-score,Call
ACTL10,1.11,inactive
ACTL10,0.27,inactive
ACTL10,0.26,inactive
ACTL10,-0.75,inactive
PPP1R14C,-0.37,inactive
PPP1R14C,0.44,inactive
PPP1R14C,-0.02,inactive
PPP1R14C,-0.2,inactive
UNCX,1,inactive
UNCX,0.75,inactive
UNCX,-0.65,inactive
UNCX,0.22,inactive
GPR22,0.34,inactive
GPR22,2.57,inactive
GPR22,0.58,inactive
GPR22,1.6,inactive
FAM234A,0.32,inactive
FAM234A,0.53,inactive
FAM234A,0.19,inactive
FAM234A,-0.33,inactive
TMEM14B,-0.64,inactive
TMEM14B,-1.02,inactive
TMEM14B,-0.65,inactive
FBXW5,3.12,active
FBXW5,-0.59,inactive
FBXW5,-0.84,inactive
FBXW5,0.1,inactive
MOXD1,-0.3,inactive
MOXD1,0.01,inactive
MOXD1,-0.22,inactive
MOXD1,1.11,inactive
RNF24,0.73,inactive
RNF24,1.22,inactive
RNF24,1.28,inactive
RNF24,-1.12,inactive
PLPP7,0.66,inactive
PLPP7,2,inactive
PLPP7,1.94,inactive
PLPP7,-1.37,inactive
INTS3,-0.81,inactive
INTS3,0.06,inactive
INTS3,-0.02,inactive
INTS3,0.62,inactive
SLAMF9,-0.18,inactive
SLAMF9,-0.04,inactive
SLAMF9,0.37,inactive
SLAMF9,0.33,inactive
HLA-DRB4,10.8,active
HLA-DRB4,-0.52,inactive
HLA-DRB4,0.25,inactive
HLA-DRB4,1.32,inactive
DUS4L,0.37,inactive
DUS4L,-0.35,inactive
DUS4L,-0.36,inactive
DUS4L,-0.9,inactive
FRAS1,-0.73,inactive
FRAS1,-0.55,inactive
FRAS1,-0.82,inactive
FRAS1,-0.53,inactive
ZMYND11,-1.56,active
ZMYND11,-1.64,active
ZMYND11,-1.71,active
ZMYND11,-1.16,inactive
LRP2BP,-0.82,inactive
LRP2BP,-0.64,inactive
LRP2BP,-1.02,inactive
LRP2BP,-0.57,inactive
CILP,0.26,inactive
CILP,-0.33,inactive
CILP,-0.83,inactive
CILP,0.75,inactive
ANO3,-0.37,inactive
ANO3,-1.06,inactive
ANO3,-0.27,inactive
ANO3,-0.67,inactive
LOXL1,-0.8,inactive
LOXL1,-0.68,inactive
LOXL1,-0.91,inactive
LOXL1,0.52,inactive
LRRC42,-1.1,inactive
LRRC42,0.46,inactive
LRRC42,-1.05,inactive
LRRC42,-1.02,inactive
EVA1B,-0.59,inactive
EVA1B,-0.97,inactive
EVA1B,-0.05,inactive
EVA1B,0.63,inactive
IL17RB,0.9,inactive
IL17RB,0.39,inactive
IL17RB,0.33,inactive
IL17RB,-0.04,inactive
HLA-DPA1,2.19,inactive
HLA-DPA1,2.51,inactive
HLA-DPA1,1.26,inactive
HLA-DPA1,2.11,inactive
HRAS,11.5,active
HRAS,0.27,inactive
HRAS,0.5,inactive
HRAS,0.33,inactive
C2CD3,1.87,inactive
C2CD3,2.14,inactive
C2CD3,2.33,inactive
C2CD3,2.31,inactive
PKP4,0.8,inactive
PKP4,2.49,inactive
PKP4,2.14,inactive
PKP4,1.06,inactive
DRC11,2.14,inactive
DRC11,-0.1,inactive
DRC11,0.32,inactive
DRC11,0.83,inactive
CPEB2,-0.05,inactive
CPEB2,0.05,inactive
CPEB2,0.8,inactive
CPEB2,0.45,inactive
FAM174B,-0.02,inactive
FAM174B,0.2,inactive
FAM174B,0.34,inactive
FAM174B,-0.22,inactive
TGIF2LY,-0.32,inactive
TGIF2LY,0.09,inactive
TGIF2LY,0.58,inactive
TGIF2LY,-0.75,inactive
BNIP3,-0.75,inactive
BNIP3,-0.11,inactive
BNIP3,-0.13,inactive
BNIP3,-0.47,inactive
WFDC11,0.84,inactive
WFDC11,-0.14,inactive
WFDC11,0.04,inactive
WFDC11,0.22,inactive
RAB36,0.32,inactive
RAB36,0.6,inactive
RAB36,0.69,inactive
RAB36,0.87,inactive
C9orf153,0.48,inactive
C9orf153,1.49,inactive
C9orf153,1.02,inactive
C9orf153,2.03,inactive
KRTAP5-9,0.94,inactive
KRTAP5-9,-2.19,active
KRTAP5-9,1.28,inactive
KRTAP5-9,4.46,active
